These are yes or no findings as the source states them, for the method shown. Some entries that bind do so weakly or less than the wild type. Sequences can lack the tags named with a protein.
B1: B-BOX 18 (BBX18), yeast two-hybrid fusion (protein, UniProt Q9SJU5 1-172)
chain: MRILCDACESAAAIVFCAADEAALCCSCDEKVHKCNKLASRHLRVGLADPSNAPSCDICENAPAFFYCEIDGSSLCLQCDMVVHVGGKRTHRRFLLLRQRIEFPGDKPNHADQLGLRCQKASSGRGQESNGNGDHDHNMIDLNSNPQRVHEPGSHNQEEGIDVNNANNHEHE
B2: BBX19, yeast two-hybrid fusion (protein, UniProt C0SVM5 1-183)
chain: MRILCDACENAAAIIFCAADEAALCRPCDEKVHMCNKLASRHVRVGLAEPSNAPCCDICENAPAFFYCEIDGSSLCLQCDMVVHVGGKRTHGRFLLLRQRIEFPGDKPKENNTRDNLQNQRVSTNGNGEANGKIDDEMIDLNANPQRVHEPSSNNNGIDVNNENNHEPAGLVPVGPFKRESEK

Columns and labels:
[1] = biological target: T1, PSEUDO-RESPONSE REGULATOR 5 (PRR5), yeast two-hybrid fusion (Arabidopsis thaliana) (UniProt Q6LA42); experiment: two-hybrid; pGADT7 and pGBKT7 constructs co-transformed into yeast AH109; growth on -LT and on -LTH with various concentrations of 3-AT
T1 sequence: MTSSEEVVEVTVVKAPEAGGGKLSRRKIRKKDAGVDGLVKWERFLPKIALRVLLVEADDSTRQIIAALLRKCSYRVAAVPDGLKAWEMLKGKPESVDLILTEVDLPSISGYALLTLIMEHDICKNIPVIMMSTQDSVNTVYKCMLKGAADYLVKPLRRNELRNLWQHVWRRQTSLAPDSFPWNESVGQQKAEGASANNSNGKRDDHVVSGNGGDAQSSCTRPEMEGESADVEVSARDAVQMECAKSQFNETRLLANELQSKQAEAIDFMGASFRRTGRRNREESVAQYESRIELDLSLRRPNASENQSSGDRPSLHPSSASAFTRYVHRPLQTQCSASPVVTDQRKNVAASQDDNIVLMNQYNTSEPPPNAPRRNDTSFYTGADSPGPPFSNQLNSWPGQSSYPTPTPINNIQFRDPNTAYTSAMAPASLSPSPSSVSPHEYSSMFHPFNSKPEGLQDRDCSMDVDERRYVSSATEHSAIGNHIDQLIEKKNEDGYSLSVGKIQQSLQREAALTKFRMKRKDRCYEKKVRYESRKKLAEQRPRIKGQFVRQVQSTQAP

[2] = biological target: T2, PRR5 truncation containing the CCT domain (Arabidopsis thaliana) (UniProt Q6LA42); experiment: as above
T2 sequence: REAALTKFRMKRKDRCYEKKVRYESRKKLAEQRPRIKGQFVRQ

Row | Binder | binding [1] | binding [2]
1 | B1 | binds | no binding
2 | B2 | binds | –

From PMC8651621
